Measurements reported in PubChem BioAssay AID602196 (INSERM, 2012)

Screen: 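Modifiers of cisplatin sensitivity in A549 cells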
Cells: human A549 lung cancer cells
Knock-down reagent: siRNA pair against human genes
Timing: 48 h transfection before cisplatin; time from cisplatin to read-out not stated
Conditions: cisplatin at a dose killing half of control-siRNA cells; exact dose and duration not given
Measurement: 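Shift in cisplatin death relative to control siRNA, from -50 (all cells die) to +50 (no cells die); siRNAs harmful on their own scored 0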
Direction: two-siRNA summed score (-2 to +2): higher = both siRNAs protect from cisplatin killing; -2 means both sensitise
Rule for the call: 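siRNAs harmful alone (LDH or WST-1) get 0; others get +1 for less and -1 for more cisplatin killing; genes are active when the two siRNAs give the same sign, summing to ±2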
Calls: active = both siRNAs shift cisplatin killing the same way; inactive = no consistent shift, or siRNA harmful alone
Shown is a random part of about 23,000 reagents. 455 of them (2%) count as active. 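Active includes both protection and sensitisation; some change values fall well beyond the stated -50 to +50 range.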 Entries without a mark were called inactive. Further read-outs or replicates are left out here. No sequences are given here. Not given: the amount of reagent.

two-siRNA summed score (-2 to +2), by target and reagent
LOC390874: SID131520825 1
UEVLD (UEV and lactate/malate dehyrogenase domains): SID131520848 1
MAP4K1 (mitogen-activated protein kinase kinase kinase kinase 1): SID131507873 0
LOC401344: SID131512807 0
HERPUD1: SID131515909 0
EDN2 (endothelin 2): SID131508635 0
CHURC1 (churchill domain containing 1): SID131506709 0
LOC400985: SID131508640 0
ALOX12B (arachidonate 12-lipoxygenase, 12R type): SID131503786 0
EIF5 (eukaryotic translation initiation factor 5): SID131505484 0
VPS35L (VPS35 endosomal protein sorting factor like): SID131509031 0
LOC149297: SID131520563 1
LOC440087: SID131506003 0
LOC440268: SID131518368 0
REST (RE1 silencing transcription factor): SID131522522 1
ADGB (androglobin): SID131509639 0
DGKH (diacylglycerol kinase eta): SID131503106 0
LOC401065: SID131515817 0
EPHA4 (EPH receptor A4): SID131521549 1
ANKRD18A (ankyrin repeat domain 18A): SID131512156 0
CFAP161 (cilia and flagella associated protein 161): SID131501516 -1
ZEB2 (zinc finger E-box binding homeobox 2): SID131516458 0
EXOC1 (exocyst complex component 1): SID131506579 0
YBX3 (Y-box binding protein 3): SID131518355 0
ROR1 (ROR family WNT receptor 1): SID131522755 1
OLFML2A (olfactomedin like 2A): SID131502202 -1
PHF8 (PHD finger protein 8): SID131506930 0
GPR42 (G protein-coupled receptor 42): SID131501875 -1
ZNF214 (zinc finger protein 214): SID131519803 1
ACVR1B (activin A receptor type 1B): SID131519714 1
SLC30A10: SID131511303 0
SLC4A11: SID131506344 0
ZNF888 (zinc finger protein 888): SID131508639 0
LZTR1 (leucine zipper like post translational regulator 1): SID131507881 0
LOC440735: SID131509605 0
CMTM6 (CKLF like MARVEL transmembrane domain containing 6): SID131511364 0
SMIM19 (small integral membrane protein 19): SID131505869 0
TRAM2 (translocation associated membrane protein 2): SID131509067 0
IRF2BP2 (interferon regulatory factor 2 binding protein 2): SID131519670 1
ACE2 (angiotensin converting enzyme 2): SID131517435 0
LOC388648: SID131516377 0
LOC387632: SID131522379 1
OPRK1 (opioid receptor kappa 1): SID131502712 -1
RIMBP2 (RIMS binding protein 2): SID131520651 1
LGALS4 (galectin 4): SID131504379 0
NDUFA3 (NADH:ubiquinone oxidoreductase subunit A3): SID131504585 0
ZNF34 (zinc finger protein 34): SID131501326 -1
CD300A (CD300a molecule): SID131520082 1
ATP5F1E (ATP synthase F1 subunit epsilon): SID131512661 0
PSMG2 (proteasome assembly chaperone 2): SID131515890 0
ALDH3A1 (aldehyde dehydrogenase 3 family member A1): SID131505329 0
BANF2 (BANF family member 2): SID131513503 0
PCBP2 (poly(rC) binding protein 2): SID131514636 0
SPANXB1 (SPANX family member B1): SID131504581 0
LOC441136: SID131511849 0
RAD51C (RAD51 paralog C): SID131522310 1
SMC4 (structural maintenance of chromosomes 4): SID131515233 0
HTR2C (5-hydroxytryptamine receptor 2C): SID131508248 0
RFX1 (regulatory factor X1): SID131515410 0
LOC440474: SID131516122 0
SLCO4A1: SID131514089 0
NOS1AP (nitric oxide synthase 1 adaptor protein): SID131519743 1
HSPE1 (heat shock protein family E (Hsp10) member 1): SID131501151 -1
ZNF414 (zinc finger protein 414): SID131508828 0
LOC441529: SID131515907 0
SPATA31A7 (SPATA31 subfamily A member 7): SID131515799 0
TJP3P1 (TJP3 pseudogene 1): SID131521016 1
MFAP2 (microfibril associated protein 2): SID131502525 -1
CENPM (centromere protein M): SID131502552 -1
IL4I1 (interleukin 4 induced 1): SID131507962 0
NEFH (neurofilament heavy chain): SID131502389 -1
LOC389900: SID131502412 -1
STMN1 (stathmin 1): SID131504932 0; SID131508227 0

Laid out differently: entries from further up
| target | PubChem SID | two-siRNA summed score (-2 to +2) |
| --- | --- | --- |
| YBX3 (Y-box binding protein 3) | SID131518355 | 0 |
| ROR1 (ROR family WNT receptor 1) | SID131522755 | 1 |
| OLFML2A (olfactomedin like 2A) | SID131502202 | -1 |
| PHF8 (PHD finger protein 8) | SID131506930 | 0 |
| GPR42 (G protein-coupled receptor 42) | SID131501875 | -1 |
